{"sequences": {"note": "Amino acid sequences for entries named in this document (tags omitted). A change or cut given only in a name is not applied to a line headed by its entry.", "UniProt Q7Z434": "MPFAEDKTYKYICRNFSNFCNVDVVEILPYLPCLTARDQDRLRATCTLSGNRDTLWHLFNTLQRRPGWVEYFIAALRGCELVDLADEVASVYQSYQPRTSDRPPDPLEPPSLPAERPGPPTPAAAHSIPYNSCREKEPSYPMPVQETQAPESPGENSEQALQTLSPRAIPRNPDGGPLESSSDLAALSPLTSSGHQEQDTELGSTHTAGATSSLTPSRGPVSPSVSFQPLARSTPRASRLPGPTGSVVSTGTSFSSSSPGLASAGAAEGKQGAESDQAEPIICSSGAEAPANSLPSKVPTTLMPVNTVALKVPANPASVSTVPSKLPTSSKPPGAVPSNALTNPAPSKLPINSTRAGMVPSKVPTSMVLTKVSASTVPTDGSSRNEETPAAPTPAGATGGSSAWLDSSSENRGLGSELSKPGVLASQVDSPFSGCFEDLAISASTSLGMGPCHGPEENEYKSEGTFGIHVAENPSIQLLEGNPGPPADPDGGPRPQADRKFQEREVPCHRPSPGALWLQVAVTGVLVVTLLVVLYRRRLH", "UniProt Q9Y3Z3": "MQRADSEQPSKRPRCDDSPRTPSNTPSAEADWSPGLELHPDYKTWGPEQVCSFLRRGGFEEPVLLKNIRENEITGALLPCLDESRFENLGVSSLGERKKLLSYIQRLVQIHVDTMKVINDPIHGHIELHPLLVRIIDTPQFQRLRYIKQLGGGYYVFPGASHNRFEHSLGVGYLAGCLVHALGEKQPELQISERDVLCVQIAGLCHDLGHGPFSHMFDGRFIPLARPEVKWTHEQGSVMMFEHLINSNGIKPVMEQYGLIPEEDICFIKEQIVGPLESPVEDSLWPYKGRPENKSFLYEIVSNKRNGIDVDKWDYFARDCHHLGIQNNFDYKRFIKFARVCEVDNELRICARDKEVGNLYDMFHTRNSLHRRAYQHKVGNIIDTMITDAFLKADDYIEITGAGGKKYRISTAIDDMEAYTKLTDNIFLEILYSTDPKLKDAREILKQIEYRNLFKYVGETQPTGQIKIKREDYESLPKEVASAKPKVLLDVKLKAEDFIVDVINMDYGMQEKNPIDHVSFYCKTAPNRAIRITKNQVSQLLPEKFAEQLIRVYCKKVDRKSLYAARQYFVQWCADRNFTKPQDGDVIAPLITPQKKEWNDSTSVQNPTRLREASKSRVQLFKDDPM"}, "source": "paper PMC10404699", "key": {"[1]": {"target": "T1, FLAG-tagged full-length IRF7 (IFN regulatory factor 7) (human) (UniProt Q92985)", "T1 sequence": "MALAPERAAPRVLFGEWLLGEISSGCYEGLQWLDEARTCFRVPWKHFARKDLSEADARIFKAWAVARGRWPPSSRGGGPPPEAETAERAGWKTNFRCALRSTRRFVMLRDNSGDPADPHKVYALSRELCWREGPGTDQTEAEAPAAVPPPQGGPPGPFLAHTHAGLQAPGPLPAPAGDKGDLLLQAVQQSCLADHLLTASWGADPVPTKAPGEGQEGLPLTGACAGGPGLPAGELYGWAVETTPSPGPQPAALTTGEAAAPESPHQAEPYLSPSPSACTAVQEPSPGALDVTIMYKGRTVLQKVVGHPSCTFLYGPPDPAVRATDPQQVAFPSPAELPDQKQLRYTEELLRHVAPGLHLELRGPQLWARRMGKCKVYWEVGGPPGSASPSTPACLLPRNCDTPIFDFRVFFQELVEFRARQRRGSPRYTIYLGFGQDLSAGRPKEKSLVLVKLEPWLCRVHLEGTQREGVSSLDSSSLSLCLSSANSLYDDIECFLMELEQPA", "test": "co-IP; HEK293T cotransfected, lysed 36 h posttransfection; IP with anti-FLAG antibody and Dynabeads Protein G; washed with 50 mM Tris (pH7.4), 150 mM NaCl, 1% NP-40, 0.25% sodium deoxycholate; immunoblot"}, "[2]": {"target": "FLAG-tagged full-length MAVS (mitochondrial antiviral-signaling protein) (human) (UniProt Q7Z434)", "test": "co-IP; HEK293T cotransfected, lysed 36 h posttransfection; IP with anti-FLAG antibody and Dynabeads Protein G; washed with 50 mM Tris (pH7.4), 150 mM NaCl, 1% NP-40, 0.25% sodium deoxycholate; immunoblot"}, "[3]": {"target": "HA-tagged SAMHD1 WT (sterile alpha motif and HD domain-containing protein 1) (human) (UniProt Q9Y3Z3)", "test": "co-IP; HEK293T cotransfected, lysed 36 h posttransfection; IP with anti-HA antibody (HA-SAMHD1 as bait) and Dynabeads Protein G; nonspecific IgG as negative control; washed with 50 mM Tris (pH7.4), 150 mM NaCl, 1% NP-40, 0.25% sodium deoxycholate; immunoblot"}, "[4]": {"target": "endogenous SAMHD1 of THP-1 cells (human (endogenous in THP-1)) (UniProt Q9Y3Z3)", "test": "co-IP; endogenous proteins; THP-1 control cells mock-infected or infected with SeV (MOI of 10), harvested at 6 hpi; IP with SAMHD1 antibody or IgG control; immunoblot"}}, "note": "No constants are given. Whether binding was seen depends on the method and setting. Binding seen in cells or lysates may run through a third protein. Some entries that bind do so weakly or less than the wild type. For some assays here: Tags and fused reporters may be left off the sequences shown.", "data": [{"substance": "HA-tagged SAMHD1 WT (sterile alpha motif and HD domain-containing protein 1) (from UniProt Q9Y3Z3 1-626)", "values": [{"measurement": "binding", "setting": "[1]", "result": "binds"}, {"measurement": "binding", "setting": "[2]", "result": "binds"}]}, {"substance": "HA-tagged SAMHD1 HD/RN mutant (H206R and D207N) (from UniProt Q9Y3Z3 1-626)", "values": [{"measurement": "binding", "setting": "[2]", "result": "binds"}]}, {"substance": "FLAG-tagged full-length MAVS (mitochondrial antiviral-signaling protein) (from UniProt Q7Z434 1-540)", "values": [{"measurement": "binding", "setting": "[3]", "result": "binds"}]}, {"substance": "endogenous MAVS of THP-1 cells (from UniProt Q7Z434 1-540)", "values": [{"measurement": "binding", "setting": "[4]", "result": "binds"}]}]}
